Results deposited as PubChem BioAssay AID743121 (NCATS, 2013)
This is one part, drawn at random, of about 26,000 reagents. 167 of them (0.63%) were called active. 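Calls are per gene from RSA p-values that are not deposited; an individual active-marked siRNA can sensitise only weakly.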 Entries without a mark were called inactive. The numbers tell different reagents against one gene apart. No sequences are given here.

- Aim: 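Genes whose silencing strengthens cell killing by camptothecin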 (primary screen)
- Cells: MDA-MB-231 cells, a human breast cancer line
- Reagent: single siRNA against human genes, 20 nM siRNA (0.8 pmol per well)
- Timing: 120 h (drug added 48 h after transfection, read 72 h later)
- Treatment: camptothecin 20 nM (about EC30) for 72 h; vehicle 0.1% DMSO in parallel plates
- Measured: 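CellTiter-Glo ATP signal, scaled to control siRNA as percent viability; sensitisation given as log2 of untreated divided by camptothecin-treated viability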
- Direction: log2 vehicle/camptothecin viability: higher = stronger sensitisation to camptothecin; viability with camptothecin and viability without drug: higher = more viable cells
- Rule for the call: 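Active genes have an RSA gene-level p-value below 0.001, computed from the ratios of their separate siRNAs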

| gene | reagent no. | log2 vehicle/camptothecin viability | viability with camptothecin (% of control) | viability without drug (% of control) |
| --- | --- | --- | --- | --- |
| SERPINA11 (serpin family A member 11) | 1 | -0.0641 | 102 | 97.9 |
| SERPINA11 (serpin family A member 11) | 2 | -0.125 | 102 | 93.1 |
| SERPINA11 (serpin family A member 11) | 3 | -0.433 | 90.7 | 67.2 |
| SERPINA11 (serpin family A member 11) | 4 | 0.115 | 34.3 | 37.2 |
| ASB7 (ankyrin repeat and SOCS box containing 7) | 1 | 0.191 | 79.3 | 90.6 |
| ASB7 (ankyrin repeat and SOCS box containing 7) | 2 | 0.162 | 97 | 109 |
| ASB7 (ankyrin repeat and SOCS box containing 7) | 3 | -0.476 | 113 | 81.1 |
| ASB7 (ankyrin repeat and SOCS box containing 7) | 4 | 0.0106 | 99.8 | 101 |
| TGM6 (transglutaminase 6) | 1 | -0.275 | 55.6 | 46 |
| TGM6 (transglutaminase 6) | 2 | -0.00385 | 26.7 | 26.7 |
| TGM6 (transglutaminase 6) | 3 | -0.0959 | 69.5 | 65 |
| TGM6 (transglutaminase 6) | 4 | 0.0204 | 58.7 | 59.6 |
| TGM1 (transglutaminase 1) | 1 | 0.365 | 67.8 | 87.3 |
| TGM1 (transglutaminase 1) | 2 | -0.0356 | 61.9 | 60.4 |
| TGM1 (transglutaminase 1) | 3 | -0.346 | 48.9 | 38.4 |
| TGM1 (transglutaminase 1) | 4 | -0.0958 | 105 | 98.3 |
| FN3K (fructosamine 3 kinase) | 1 | -0.546 | 81.8 | 56 |
| FN3K (fructosamine 3 kinase) | 2 | -0.471 | 95.5 | 68.8 |
| FN3K (fructosamine 3 kinase) | 3 | -0.239 | 70.3 | 59.5 |
| FN3K (fructosamine 3 kinase) | 4 | -0.00379 | 55.2 | 55 |
| FBXO40 (F-box protein 40) | 1 | 0.0948 | 90 | 96.1 |
| FBXO40 (F-box protein 40) | 2 | -0.126 | 85.6 | 78.4 |
| FBXO40 (F-box protein 40) | 3 | 0.0765 | 89.2 | 94.1 |
| FBXO40 (F-box protein 40) | 4 | 0.407 | 34.8 | 46.1 |
| CYP2A7 (cytochrome P450 family 2 subfamily A member 7) | 1 | -0.641 | 93.9 | 60.2 |
| CYP2A7 (cytochrome P450 family 2 subfamily A member 7) | 2 | -0.131 | 95.4 | 87.1 |
| CYP2A7 (cytochrome P450 family 2 subfamily A member 7) | 3 | -0.327 | 90.3 | 72 |
| CYP2A7 (cytochrome P450 family 2 subfamily A member 7) | 4 | 0.0826 | 87.4 | 92.5 |

2 of these entries, reformatted:
FBXO40 (F-box protein 40) #4
- log2 vehicle/camptothecin viability: 0.407
- viability with camptothecin (% of control): 34.8
- viability without drug (% of control): 46.1

CYP2A7 (cytochrome P450 family 2 subfamily A member 7) #1
- log2 vehicle/camptothecin viability: -0.641
- viability with camptothecin (% of control): 93.9
- viability without drug (% of control): 60.2
